The supplement of paper PMC10849652
Some of the results follow.

Amino acid sequences for entries named in this document (tags omitted). A change or cut given only in a name is not applied to a line headed by its entry.
UniProt Q9Y227: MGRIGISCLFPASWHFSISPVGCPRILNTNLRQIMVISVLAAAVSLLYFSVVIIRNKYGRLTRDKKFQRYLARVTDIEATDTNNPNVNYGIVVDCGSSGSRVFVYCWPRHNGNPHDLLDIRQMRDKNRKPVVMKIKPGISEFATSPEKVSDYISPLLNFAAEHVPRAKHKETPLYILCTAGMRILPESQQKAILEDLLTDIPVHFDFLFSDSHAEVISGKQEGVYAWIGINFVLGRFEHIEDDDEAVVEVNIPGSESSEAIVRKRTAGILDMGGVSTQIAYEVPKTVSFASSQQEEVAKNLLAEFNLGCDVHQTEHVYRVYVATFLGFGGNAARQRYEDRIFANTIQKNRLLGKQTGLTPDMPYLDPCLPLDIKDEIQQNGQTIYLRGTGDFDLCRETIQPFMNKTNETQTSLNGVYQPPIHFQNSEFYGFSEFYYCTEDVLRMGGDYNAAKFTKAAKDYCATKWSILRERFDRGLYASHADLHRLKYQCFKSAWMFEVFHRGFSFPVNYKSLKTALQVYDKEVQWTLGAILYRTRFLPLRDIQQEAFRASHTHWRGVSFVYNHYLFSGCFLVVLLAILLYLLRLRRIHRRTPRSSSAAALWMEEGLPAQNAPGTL
UniProt Q8N766: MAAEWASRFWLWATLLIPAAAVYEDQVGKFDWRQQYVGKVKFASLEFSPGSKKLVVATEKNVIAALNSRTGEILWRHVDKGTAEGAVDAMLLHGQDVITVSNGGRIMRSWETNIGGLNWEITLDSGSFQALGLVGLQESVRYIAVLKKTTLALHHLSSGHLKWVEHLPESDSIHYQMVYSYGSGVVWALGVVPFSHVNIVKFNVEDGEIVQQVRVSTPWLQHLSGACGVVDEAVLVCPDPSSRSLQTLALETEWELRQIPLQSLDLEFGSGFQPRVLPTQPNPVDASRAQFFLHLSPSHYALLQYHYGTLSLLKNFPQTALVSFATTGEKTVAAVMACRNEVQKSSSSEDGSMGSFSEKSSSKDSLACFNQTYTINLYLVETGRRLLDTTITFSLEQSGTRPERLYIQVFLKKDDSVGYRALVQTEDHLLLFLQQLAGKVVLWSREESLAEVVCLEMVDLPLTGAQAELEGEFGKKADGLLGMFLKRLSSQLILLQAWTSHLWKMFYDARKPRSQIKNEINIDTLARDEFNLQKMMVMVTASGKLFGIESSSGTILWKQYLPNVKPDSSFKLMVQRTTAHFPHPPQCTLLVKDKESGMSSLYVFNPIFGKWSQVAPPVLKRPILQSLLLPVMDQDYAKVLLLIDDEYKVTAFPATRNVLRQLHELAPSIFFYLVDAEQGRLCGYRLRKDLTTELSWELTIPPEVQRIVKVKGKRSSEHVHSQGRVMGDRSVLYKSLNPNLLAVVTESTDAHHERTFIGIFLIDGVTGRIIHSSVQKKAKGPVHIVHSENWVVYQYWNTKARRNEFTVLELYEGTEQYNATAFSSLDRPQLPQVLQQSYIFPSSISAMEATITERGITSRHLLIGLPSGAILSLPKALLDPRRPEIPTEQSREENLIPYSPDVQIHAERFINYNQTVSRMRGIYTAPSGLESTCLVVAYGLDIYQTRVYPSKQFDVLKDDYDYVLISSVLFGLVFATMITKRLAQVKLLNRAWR
UniProt Q9HCM4: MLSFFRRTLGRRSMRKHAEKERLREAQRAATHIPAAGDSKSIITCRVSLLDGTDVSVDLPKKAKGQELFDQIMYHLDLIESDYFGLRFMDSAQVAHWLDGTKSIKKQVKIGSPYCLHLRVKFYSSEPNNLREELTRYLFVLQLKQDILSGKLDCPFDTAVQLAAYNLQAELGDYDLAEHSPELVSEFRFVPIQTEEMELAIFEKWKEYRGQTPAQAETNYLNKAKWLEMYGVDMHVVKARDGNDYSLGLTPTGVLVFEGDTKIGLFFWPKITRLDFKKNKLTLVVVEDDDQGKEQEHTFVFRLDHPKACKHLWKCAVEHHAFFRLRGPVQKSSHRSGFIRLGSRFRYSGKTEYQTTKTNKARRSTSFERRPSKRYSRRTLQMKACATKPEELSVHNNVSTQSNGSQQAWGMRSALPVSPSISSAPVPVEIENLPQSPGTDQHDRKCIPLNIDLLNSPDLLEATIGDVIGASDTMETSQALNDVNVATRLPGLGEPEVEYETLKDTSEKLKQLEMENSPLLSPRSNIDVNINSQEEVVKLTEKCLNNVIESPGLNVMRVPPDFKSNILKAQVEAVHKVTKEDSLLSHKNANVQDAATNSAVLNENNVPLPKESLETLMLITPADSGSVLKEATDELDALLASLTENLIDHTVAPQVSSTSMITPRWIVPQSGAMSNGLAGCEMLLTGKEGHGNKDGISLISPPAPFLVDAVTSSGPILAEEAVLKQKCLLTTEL
UniProt O60516: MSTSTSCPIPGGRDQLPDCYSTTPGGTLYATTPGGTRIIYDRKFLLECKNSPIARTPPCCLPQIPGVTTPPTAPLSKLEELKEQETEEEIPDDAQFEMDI
UniProt Q8N5X7: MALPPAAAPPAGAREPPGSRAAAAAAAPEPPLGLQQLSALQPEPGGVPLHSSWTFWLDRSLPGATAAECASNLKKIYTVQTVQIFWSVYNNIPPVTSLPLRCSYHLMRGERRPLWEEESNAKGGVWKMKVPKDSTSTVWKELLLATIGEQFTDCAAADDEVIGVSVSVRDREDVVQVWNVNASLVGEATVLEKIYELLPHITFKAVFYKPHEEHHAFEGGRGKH
UniProt O75354: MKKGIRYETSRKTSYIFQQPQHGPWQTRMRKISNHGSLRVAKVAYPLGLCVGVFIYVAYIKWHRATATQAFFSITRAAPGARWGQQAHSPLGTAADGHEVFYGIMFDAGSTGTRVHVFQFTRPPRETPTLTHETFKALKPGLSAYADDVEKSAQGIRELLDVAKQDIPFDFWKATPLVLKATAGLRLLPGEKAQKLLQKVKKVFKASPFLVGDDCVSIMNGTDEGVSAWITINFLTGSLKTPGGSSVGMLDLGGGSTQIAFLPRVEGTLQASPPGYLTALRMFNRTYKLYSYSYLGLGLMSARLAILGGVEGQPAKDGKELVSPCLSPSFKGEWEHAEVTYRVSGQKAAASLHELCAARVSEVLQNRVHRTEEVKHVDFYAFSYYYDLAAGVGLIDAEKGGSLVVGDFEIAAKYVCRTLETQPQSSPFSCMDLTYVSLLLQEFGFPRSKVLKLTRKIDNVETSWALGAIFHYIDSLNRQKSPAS
UniProt A1L3X0: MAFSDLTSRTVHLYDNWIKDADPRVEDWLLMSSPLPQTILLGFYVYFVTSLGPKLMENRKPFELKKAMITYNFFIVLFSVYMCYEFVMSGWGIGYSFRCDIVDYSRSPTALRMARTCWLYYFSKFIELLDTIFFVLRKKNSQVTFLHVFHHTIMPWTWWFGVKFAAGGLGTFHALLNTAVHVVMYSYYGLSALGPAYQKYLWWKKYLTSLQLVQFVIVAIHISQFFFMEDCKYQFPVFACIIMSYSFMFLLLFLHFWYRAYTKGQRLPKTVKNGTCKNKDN
UniProt Q6P179: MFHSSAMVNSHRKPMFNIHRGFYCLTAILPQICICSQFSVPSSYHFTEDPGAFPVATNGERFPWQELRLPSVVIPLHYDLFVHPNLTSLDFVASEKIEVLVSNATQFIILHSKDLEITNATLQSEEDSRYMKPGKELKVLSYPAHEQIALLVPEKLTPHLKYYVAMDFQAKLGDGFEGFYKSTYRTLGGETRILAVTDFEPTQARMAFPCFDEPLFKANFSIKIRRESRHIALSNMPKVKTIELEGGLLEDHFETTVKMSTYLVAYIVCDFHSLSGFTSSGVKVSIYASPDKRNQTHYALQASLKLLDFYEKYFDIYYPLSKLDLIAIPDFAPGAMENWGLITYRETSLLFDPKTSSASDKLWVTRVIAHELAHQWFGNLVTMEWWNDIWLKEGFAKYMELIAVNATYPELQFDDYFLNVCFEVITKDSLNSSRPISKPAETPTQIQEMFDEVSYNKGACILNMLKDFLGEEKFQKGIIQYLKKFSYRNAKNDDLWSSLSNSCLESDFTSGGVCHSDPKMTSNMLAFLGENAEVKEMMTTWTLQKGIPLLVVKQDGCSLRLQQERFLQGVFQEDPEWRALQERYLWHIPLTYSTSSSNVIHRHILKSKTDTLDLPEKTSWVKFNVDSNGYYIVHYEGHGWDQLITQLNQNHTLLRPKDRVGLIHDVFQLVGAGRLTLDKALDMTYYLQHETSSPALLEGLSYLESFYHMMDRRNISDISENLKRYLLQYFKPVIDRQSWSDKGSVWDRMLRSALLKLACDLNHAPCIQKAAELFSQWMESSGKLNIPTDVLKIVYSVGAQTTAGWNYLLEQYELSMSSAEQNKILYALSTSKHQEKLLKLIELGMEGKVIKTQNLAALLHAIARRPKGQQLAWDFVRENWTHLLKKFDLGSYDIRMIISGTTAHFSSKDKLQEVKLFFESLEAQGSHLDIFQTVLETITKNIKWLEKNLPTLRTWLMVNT
UniProt O15197: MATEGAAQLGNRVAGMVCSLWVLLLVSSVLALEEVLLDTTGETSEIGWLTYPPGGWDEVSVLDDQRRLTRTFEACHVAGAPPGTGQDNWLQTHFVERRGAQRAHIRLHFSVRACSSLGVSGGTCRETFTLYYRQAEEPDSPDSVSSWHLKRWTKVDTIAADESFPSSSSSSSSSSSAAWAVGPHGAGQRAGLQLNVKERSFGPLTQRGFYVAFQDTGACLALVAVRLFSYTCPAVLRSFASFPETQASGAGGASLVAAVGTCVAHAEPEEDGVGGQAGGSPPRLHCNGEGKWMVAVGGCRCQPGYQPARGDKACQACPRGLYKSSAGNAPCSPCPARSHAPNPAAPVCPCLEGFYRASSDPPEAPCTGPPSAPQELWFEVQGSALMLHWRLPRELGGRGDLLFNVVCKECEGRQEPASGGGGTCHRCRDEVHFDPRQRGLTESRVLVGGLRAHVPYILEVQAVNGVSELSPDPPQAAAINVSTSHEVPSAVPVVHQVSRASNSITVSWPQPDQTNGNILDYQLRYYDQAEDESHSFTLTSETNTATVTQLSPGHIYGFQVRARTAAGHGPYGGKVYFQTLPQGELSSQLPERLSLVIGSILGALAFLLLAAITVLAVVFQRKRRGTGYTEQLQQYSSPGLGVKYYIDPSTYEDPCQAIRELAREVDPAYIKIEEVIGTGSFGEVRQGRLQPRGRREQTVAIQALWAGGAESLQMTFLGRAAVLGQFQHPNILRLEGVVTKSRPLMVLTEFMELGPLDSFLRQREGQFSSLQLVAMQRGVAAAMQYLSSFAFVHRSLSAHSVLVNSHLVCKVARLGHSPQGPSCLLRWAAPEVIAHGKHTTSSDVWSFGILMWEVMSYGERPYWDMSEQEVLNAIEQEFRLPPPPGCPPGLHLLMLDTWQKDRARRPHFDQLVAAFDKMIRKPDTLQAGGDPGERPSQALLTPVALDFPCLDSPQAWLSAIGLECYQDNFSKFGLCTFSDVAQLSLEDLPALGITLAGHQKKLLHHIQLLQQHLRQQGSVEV
UniProt Q8TE02: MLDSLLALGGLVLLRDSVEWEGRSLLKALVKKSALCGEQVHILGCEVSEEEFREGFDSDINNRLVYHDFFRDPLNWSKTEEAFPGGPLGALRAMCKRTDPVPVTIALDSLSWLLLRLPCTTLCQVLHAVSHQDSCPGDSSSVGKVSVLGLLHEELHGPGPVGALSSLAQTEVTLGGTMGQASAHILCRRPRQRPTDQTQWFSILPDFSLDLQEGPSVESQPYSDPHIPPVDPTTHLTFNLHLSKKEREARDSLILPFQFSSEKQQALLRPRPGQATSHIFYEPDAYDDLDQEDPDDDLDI
UniProt Q9UKR5: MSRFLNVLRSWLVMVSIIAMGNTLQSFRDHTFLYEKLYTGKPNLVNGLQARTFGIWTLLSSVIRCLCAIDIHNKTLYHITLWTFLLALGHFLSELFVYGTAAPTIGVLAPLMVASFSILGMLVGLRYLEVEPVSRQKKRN
UniProt P50548: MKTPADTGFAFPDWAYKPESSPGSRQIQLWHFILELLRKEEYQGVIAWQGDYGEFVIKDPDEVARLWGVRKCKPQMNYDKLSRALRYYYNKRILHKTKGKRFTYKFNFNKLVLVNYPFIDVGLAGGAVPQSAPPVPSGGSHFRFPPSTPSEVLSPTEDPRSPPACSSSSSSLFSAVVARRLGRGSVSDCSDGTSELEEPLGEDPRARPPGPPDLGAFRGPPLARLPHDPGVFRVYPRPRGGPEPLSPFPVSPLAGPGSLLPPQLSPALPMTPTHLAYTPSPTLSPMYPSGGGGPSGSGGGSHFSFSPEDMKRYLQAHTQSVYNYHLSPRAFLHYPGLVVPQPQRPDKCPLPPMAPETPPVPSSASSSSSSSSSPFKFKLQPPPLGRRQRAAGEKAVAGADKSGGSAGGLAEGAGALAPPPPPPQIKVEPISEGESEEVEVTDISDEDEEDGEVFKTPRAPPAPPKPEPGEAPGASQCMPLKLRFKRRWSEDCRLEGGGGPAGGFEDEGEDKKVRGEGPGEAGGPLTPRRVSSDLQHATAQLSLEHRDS

Experiments:
Assay in all cases: log2 fold change, soluble protein after heating vs DMSO (PISA); higher = thermal stabilisation; K562 lysate, 10 uM; active = over 0.2 and 3.5 SD of the protein, either way, in both replicates (recomputed)
[1] = compound: CCn1c(C(=O)N(C2CC2)C2CC2)cc2c3c(ncn3C)c(Nc3cc(C)n(C)n3)nc21
Summary of the method: (§1)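 K562 pellets were dounce-homogenised in PBS pH 7.4 containing 1 mM MgCl2, and the crude extract, at 1 mg/mL protein, was exposed to 10 μM compound for 30 min. Aliquots were heated for 3 min across 48°C-58°C, pooled, brought to 0.5% NP-40 at 4°C and spun at 21,000xg for 90 min, with the supernatant taken as soluble protein. TMTpro 16plex LC-MS/MS with equalised channel sums quantified that protein. Values are log-two fold changes in thermal stability relative to solvent controls, taken from duplicates.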

Tubastatin A = compound: CN1CCc2c(c3ccccc3n2Cc2ccc(C(=O)NO)cc2)C1 [Tubastatin A]
Summary of the method: as §1

[2] = compound: CCCS(=O)(=O)Nc1ccc(F)c(C(=O)c2c[nH]c3ncc(Cl)cc23)c1F
Summary of the method: as §1

volasertib = compound: CC[C@@H]1C(=O)N(C)c2cnc(Nc3ccc(C(=O)N[C@H]4CC[C@H](N5CCN(CC6CC6)CC5)CC4)cc3OC)nc2N1C(C)C [volasertib]
Summary of the method: as §1

sotrastaurin = compound: CN1CCN(c2nc(C3=C(c4c[nH]c5ccccc45)C(=O)NC3=O)c3ccccc3n2)CC1 [sotrastaurin]
Summary of the method: as §1

[3] = compound: COc1cc2nc(-c3cc(F)ccc3O)nc(N[C@@H]3CNC[C@H]3C(C)(C)O)c2cc1OC
Summary of the method: as §1

barasertib = compound: CCN(CCCOc1ccc2c(Nc3cc(CC(=O)Nc4cccc(F)c4)[nH]n3)ncnc2c1)CCOP(=O)(O)O [barasertib]
Summary of the method: as §1

[4] = compound: CC[C@@H]1C(=O)N(C)c2cnc(Nc3ccc(C(=O)NC4CCN(C)CC4)cc3OC)nc2N1C1CCCC1
Summary of the method: as §1

[5] = compound: CCn1cc(-c2ccnc3[nH]c(-c4cccc(CN(C)C)c4)cc23)c(-c2ccc(NC(=O)N(C)C)cc2)n1
Summary of the method: as §1

[6] = compound: CN1CCC(CNc2ccc3ncc(-c4cccc(OC(F)(F)F)c4)n3n2)CC1
Summary of the method: as §1

alvocidib = compound: CN1CC[C@H](c2c(O)cc(O)c3c(=O)cc(-c4ccccc4Cl)oc23)[C@H](O)C1 [alvocidib]
Summary of the method: as §1

[7] = compound: CNC(=O)C1=CC=CC=C1NC2=NC(=NC=C2Cl)NC3=C(C=C(C=C3)N4CCOCC4)OC
Summary of the method: as §1

encorafenib = compound: COC(=O)N[C@@H](C)CNc1nccc(-c2cn(C(C)C)nc2-c2cc(Cl)cc(NS(C)(=O)=O)c2F)n1 [encorafenib]
Summary of the method: as §1

[8] = compound: COC(=O)[C@H](CCSC)NC(=O)C1=C(C=C(C=C1)NC[C@H](CS)N)C2=CC=CC=C2
Summary of the method: as §1

alisertib = compound: COc1cc(Nc2ncc3c(n2)-c2ccc(Cl)cc2C(c2c(F)cccc2OC)=NC3)ccc1C(=O)O [alisertib]
Summary of the method: as §1

gefitinib = compound: COc1cc2ncnc(Nc3ccc(F)c(Cl)c3)c2cc1OCCCN1CCOCC1 [gefitinib]
Summary of the method: as §1

saracatinib = compound: CN1CCN(CCOc2cc(OC3CCOCC3)c3c(Nc4c(Cl)ccc5c4OCO5)ncnc3c2)CC1 [saracatinib]
Summary of the method: as §1

[9] = compound: CNc1nc(-c2ccc3c(N)n[nH]c3c2)cc(N2C[C@@H](C(=O)NC3CCCCC3)CC[C@H]2C)n1
Summary of the method: as §1

vemurafenib = compound: CCCS(=O)(=O)Nc1ccc(F)c(C(=O)c2c[nH]c3ncc(-c4ccc(Cl)cc4)cc23)c1F [vemurafenib]
Summary of the method: as §1

defactinib = compound: CNC(=O)c1ccc(Nc2ncc(C(F)(F)F)c(NCc3nccnc3N(C)S(C)(=O)=O)n2)cc1 [defactinib]
Summary of the method: as §1

Measured: log2 fold change

ENTPD4 (UniProt Q9Y227)
inactive: [1] -0.028 | Tubastatin A 0.058

EMC1 isoform 3 (UniProt Q8N766)
inactive: [2] 0.093 | volasertib -0.076 | [1] -0.108 | sotrastaurin -0.079 | Tubastatin A 0.15 | [3] 0.033

EPB41L5 (UniProt Q9HCM4)
inactive: [2] -0.035 | barasertib -0.047 | [4] -0.213 | volasertib 0.061 | [5] 0.043 | [6] 0.062 | sotrastaurin 0.106 | alvocidib -0.043 | [7] -0.122 | encorafenib 0.077 | [8] 0.093 | [3] 0.173

EIF3I (UniProt Q5TFK1)
inactive: [2] 0.147 | volasertib -0.112 | [5] -0.048 | [6] 0.044 | alvocidib 0.053 | alisertib 0.159 | [3] 0.613 | gefitinib 0.233

EIF4EBP3 (UniProt O60516)
inactive: [7] -0.033

EIF4G3, A0A0A0MSA7
inactive: [1] -0.168 | saracatinib 0.037 | Tubastatin A 0.078 | [9] 0.116

ENO3 (UniProt K7EKN2)
inactive: [2] -0.071 | volasertib -0.038 | [3] 0.012

EIF3G (UniProt K7ENA8)
inactive: [2] 0.02 | barasertib 0.089 | volasertib 0.065 | [5] 0.008 | [6] 0 | saracatinib 0.03 | alvocidib 0.087 | [9] -0.097 | [3] 0.041

EMC1 (UniProt H7C5A2)
inactive: [2] -0.006 | volasertib -0.172 | [1] -0.312 | saracatinib -0.052 | sotrastaurin -0.223 | Tubastatin A 0.187 | [7] 0.228 | [9] 0.414 | [3] 0.165

EIF4E3 (UniProt Q8N5X7)
inactive: vemurafenib -0.086 | [4] -0.061 | [5] -0.058 | [6] 0.087 | sotrastaurin -0.03 | alvocidib -0.011 | [7] -0.288 | defactinib -0.057 | encorafenib 0.035 | [8] 0.032 | alisertib 0.07 | gefitinib 0.052

ENTPD6 (UniProt O75354)
inactive: [2] -0.038 | barasertib -0.153 | volasertib 0.035 | [1] -0.025 | [5] 0.128 | [6] 0.039 | saracatinib -0.007 | sotrastaurin 0.036 | alvocidib -0.051 | Tubastatin A -0.04 | [7] -0.088 | [9] 0.069 | [3] -0.059

ELOVL7 (UniProt A1L3X0)
inactive: [2] 0.04 | barasertib 0.031 | volasertib 0.005 | [1] 0.013 | saracatinib 0.035 | Tubastatin A -0.03 | [7] 0.016 | [9] 0.029 | alisertib 0.069 | [3] -0.048 | gefitinib 0.012

ERAP2 (UniProt Q6P179)
inactive: [2] 0.013 | barasertib 0.382 | [4] 0.005 | volasertib 0.04 | [1] -0.144 | sotrastaurin 0.036 | Tubastatin A 0.048 | [7] 0.024 | encorafenib 0.032 | [8] 0.117 | [3] 0.038

Looked up one by one from the list above (2):
EMC1 (UniProt H7C5A2)
inactive: [2] -0.006 | volasertib -0.172 | [1] -0.312 | saracatinib -0.052 | sotrastaurin -0.223 | Tubastatin A 0.187 | [7] 0.228 | [9] 0.414 | [3] 0.165

ELOVL7 (UniProt A1L3X0)
inactive: [2] 0.04 | barasertib 0.031 | volasertib 0.005 | [1] 0.013 | saracatinib 0.035 | Tubastatin A -0.03 | [7] 0.016 | [9] 0.029 | alisertib 0.069 | [3] -0.048 | gefitinib 0.012

(listing goes on)

EPHB6 (UniProt O15197)
inactive: vemurafenib -0.088 | [4] -0.23 | [1] -0.166 | [5] 0.03 | [6] -0.093 | alvocidib -0.017 | Tubastatin A -0.185 | defactinib 0.067 | encorafenib 0.064 | [8] 0.03 | alisertib -0.059 | gefitinib -0.038

ELP5 isoform 2 (UniProt Q8TE02)
inactive: [5] 0.038 | [6] -0.252 | alvocidib 0.083

EIF4B (UniProt F8VP89)
inactive: [2] 0 | barasertib -0.007 | volasertib -0.067 | saracatinib 0.146 | sotrastaurin 0.01 | [9] -0.166 | [3] 0.099

ERG28 (UniProt Q9UKR5)
active: [6] -0.497
inactive: [2] -0.012 | barasertib 0.065 | [4] 0.179 | volasertib 0.048 | [5] 0.541 | saracatinib 0.1 | alvocidib 0.304 | [9] -0.037 | encorafenib 0.055 | [8] -0.062 | [3] -0.024

EIF2B5, A0A3B3ITK8
inactive: [2] -0.071 | volasertib 0.081 | alisertib -0.014 | [3] -0.03 | gefitinib -0.08

ERF (UniProt P50548)
inactive: vemurafenib 0.085 | [1] 0.055 | saracatinib -0.041 | sotrastaurin 0.166 | Tubastatin A 0.016 | [7] 0.014 | defactinib -0.053 | [9] -0.184 | alisertib 0.024 | gefitinib 0.017

EPS8L2 (UniProt Q9H6S3)
inactive: [2] 0 | barasertib -0.049 | [4] 0.022 | volasertib 0.023 | [1] -0.034 | [5] -0.196 | [6] 0.056 | saracatinib 0.045 | sotrastaurin -0.049 | alvocidib -0.009 | Tubastatin A 0.078 | [7] -0.016 | [9] 0.031 | encorafenib 0.096 | [8] -0.037 | alisertib 0.01 | [3] -0.036 | gefitinib -0.149

EPB41L5 isoform 2 (UniProt Q9HCM4)
inactive: [2] 0.079 | volasertib 0.103 | [3] 0.089
